Assay [1] has as its target T1, T7-tagged full length Ipaf (human, UniProt Q9NPP4 1-1024).
T1 construct: also called T7-Ipaf; T7-tagged Ipaf
Nature of the assay: co-immunoprecipitation from 293T lysates (IP anti-Flag, blot anti-T7). The method, then:
24 hours following transfection, cells were lysed in 50 mM Tris/HCl pH 7.6, 150 mM NaCl containing 0.5% NP-40, 10 μg.ml⁻¹ leupeptin and aprotinin and 0.1 mM PMSF and clarified by centrifugation at 15,000 g for 15 min. The clarified lysates were preabsorbed on protein G-Sepharose (Pharmacia) and then incubated with anti-FLAG-M5 monoclonal antibody (Eastman Kodak Co.) for 2 hours, followed by protein G-Sepharose agarose IgG beads. Immune complexes were washed extensively in the lysis buffer and eluted by boiling in an SDS sample buffer. The eluted proteins were resolved by SDS-PAGE and detected by Western analysis with a horseradish peroxidase-conjugate T7-antibody (Novagen). GST Pull-down assays were performed as described (Ahmad et al., Cancer Res 57:615-9, 1997).
24 hours following transfection, cells were lysed and the lysates immunoprecipitated (IP) with an anti-Flag antibody. The immunoprecipitates were immunoblotted (IB) with an anti-T7 antibody. Expression of T7-Ipaf or Flag-tagged constructs was determined by immunoblotting (IB) with anti-T7 or anti-Flag antibodies, respectively. […] This association was dependent on the N-terminal CARD as deletion of this domain prevented the CARD-truncated Ipaf mutant from interacting with the full-length Ipaf. Moreover, the epitope-tagged CARD of Ipaf was able to co-immunoprecipitate the full-length protein.

Sequences of proteins named here, by UniProt entry; tags and fusion partners are left off.
UniProt P29466: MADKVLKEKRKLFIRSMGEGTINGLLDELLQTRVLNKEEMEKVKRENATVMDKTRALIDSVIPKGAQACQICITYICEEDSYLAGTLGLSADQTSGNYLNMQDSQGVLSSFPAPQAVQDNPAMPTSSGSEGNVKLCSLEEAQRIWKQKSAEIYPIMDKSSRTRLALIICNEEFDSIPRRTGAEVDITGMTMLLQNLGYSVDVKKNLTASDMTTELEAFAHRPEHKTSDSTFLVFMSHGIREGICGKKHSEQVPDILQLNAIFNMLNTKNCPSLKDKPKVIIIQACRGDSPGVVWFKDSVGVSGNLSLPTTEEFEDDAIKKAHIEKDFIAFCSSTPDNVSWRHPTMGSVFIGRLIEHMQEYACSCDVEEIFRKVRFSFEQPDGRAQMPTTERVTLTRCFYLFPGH

Assay [2] concerns the target T1, T7-tagged full length Ipaf. Description: co-immunoprecipitation from 293T lysates (IP anti-Flag, blot anti-T7), FIG. 6.
For assay [3], the target named is T2, Ipaf-CARD-GST fusion protein (human) (UniProt Q9NPP4).
T2 sequence: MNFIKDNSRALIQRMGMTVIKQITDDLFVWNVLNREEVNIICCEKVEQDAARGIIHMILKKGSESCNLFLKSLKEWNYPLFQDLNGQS
Description: GST pull-down, autoradiography, FIG. 9.

The target in assay [4] is T2, Ipaf-CARD-GST fusion protein (human). Nature of the assay: GST pull-down on glutathione Sepharose beads, SDS-PAGE and autoradiography.
Assay [5] has the same target. Description: GST pull-down, autoradiography, FIG. 7.

This is an account of results in patent publication US20030099969A1 (published 2003).

Results are given in words; binding and its absence hold for the method and conditions named. In cells and extracts the contact can be indirect. Some binding calls cover weakened binding; strength is not graded here. Where a sequence is shown, tags or fusion partners need not be part of it.

For the molecule “Flag-tagged full length Ipaf (from UniProt Q9NPP4 1-1024)”, the binding entry in assay [1] and in assay [2] was “binds” in each case.
Consider “35S-labeled procaspase-1 (from UniProt P29466 1-404) (enzyme)”, for which the binding result in assay [3] and in assay [4] was “binds” each time.
“35S-labeled Ipaf (from UniProt Q9NPP4 1-1024)”: the binding entry in assay [5] and in assay [4] was “binds” throughout.

B1: Flag-tagged CARD domain (residues 1-88) of Ipaf (protein)
chain: DYKDDDDKMNFIKDNSRALIQRMGMTVIKQITDDLFVWNVLNREEVNIICCEKVEQDAARGIIHMILKKGSESCNLFLKSLKEWNYPLFQDLNGQS
For B1, the binding entry in assay [1] and in assay [2] was “binds” in each case.
